# Experimental data taken from PubChem BioAssay AID1487 (National Center for Advancing Translational Sciences (NCATS), 2009).
# Values joined by “and” are separate entries in the source; they are usually repeats but may differ in a detail not shown here. Identical values can stand only once. Some of the results follow. The main result of the screen is listed elsewhere. These columns were measured beside it and carry no call. Compounds called inactive in the main read-out are mostly missing here. Potencies come from curve fits of mixed quality, noted in brackets.
# Test: qHTS Assay for Modulators of Lamin A Splicing
# Conditions: HeLa LMNA splicing GFP/RFP minigene ratio, 48 h
# How it was run: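 Read-out is the ratio of GFP to DsRed2 object intensity, acquired by 488 nm laser-scanning cytometry on HeLa lamin A-EGFP minigene reporter cells. Compound incubation 48 hrs at 37 °C in Opti-MEM with 2% FBS; DMSO 0.5% final.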
# [1] = measured here: RFP viability control channel
# [2] = measured here: GFP splicing reporter channel
SMILES,AC50 [1],AC50 [2]
CCCC(=O)O[C@]1(C(=O)CCl)[C@@H](C)C[C@H]2[C@@H]3CCC4=CC(=O)C=C[C@]4(C)[C@@]3(F)C(=O)C[C@@]21C,"31.6 µM [rising, single point]",
C=C(C)C1CC=C(C)/C(=N/NC(=O)COc2cccc(C)c2)C1 (stereo not drawn),"15.8 µM [rising, partial curve, poor fit]","28.2 µM [rising, single point]"
COc1ccc(CN2CCN(Cc3ccccc3)C(CCO)C2)cc1OC (stereo not drawn),"12.6 µM [falling, partial curve, poor fit]","31.6 µM [falling, single point]"
C=C(C)COc1ccc2c(C)c(CC(=O)OC)c(=O)oc2c1C,"11.2 µM [rising, partial curve]",
C/C=C/C=C/C(=O)O,,"0.224 µM [falling, partial curve, poor fit]"
Cc1cc(O)c(C2=Nc3ccccc3SC(c3ccc(Cl)cc3)C2)c(=O)o1 (stereo not drawn),"14.1 µM [rising, partial curve]",
Cc1cc(=O)oc2cc(Oc3ccc([N+](=O)[O-])cc3[N+](=O)[O-])ccc12,"14.1 µM [falling, single point]","7.08 µM [falling, single point]"
COc1cc2c(cc1OC)C(C)N(C(=O)c1cc3c(s1)-c1ccccc1OC3)CC2 (stereo not drawn),"11.2 µM [rising, partial curve]","7.94 µM [rising, partial curve]"
CCOc1ccc2ccccc2c1C(=O)N[C@@H]1C(=O)N2[C@@H]1SC(C)(C)[C@@H]2C(=O)O,"2.24 µM [falling, partial curve]","1 µM [falling, partial curve] and 3.16 µM [falling, partial curve]"
c1ccc2c(c1)ncn2CCCOc1ccc2c(c1)CCC2,"31.6 µM [rising, single point]","25.1 µM [rising, single point]"
CC1CN(c2nc3ccccc3cc2-c2ccccc2)CC(C)O1 (stereo not drawn),"35.5 µM [rising, partial curve]",
COc1ccc(-c2nn(CC(=O)Nc3ccccc3F)c3c2cnc2ccc(F)cc23)cc1,"1.78 µM [falling, full curve, poor fit]","7.94 µM [falling, partial curve, poor fit]"
COc1ccc(C2C(=O)N(C3CCCCC3)CC(=O)N2Cc2ccccc2Cl)cc1OC (stereo not drawn),"0.0251 µM [falling, full curve]","0.02 µM [falling, full curve]"
Cc1csc(NC(=O)c2ccc3c(=O)n4c(nc3c2)CCCCC4)n1,"20 µM [rising, partial curve, poor fit]",
CNC(=S)/N=C/NOCc1c(Cl)cccc1Cl,,"0.02 µM [rising, full curve, poor fit]"
Cn1c(=O)c2c(nc(SCCN3CCCCC3)n2C)n(C)c1=O,"0.0562 µM [falling, full curve, poor fit]",

SMILES,AC50 [1],AC50 [2]
COc1ccc(CNc2nc(-c3cccc(NS(C)(=O)=O)c3)nc3ccccc23)c(OC)c1,"14.1 µM [falling, single point]","15.8 µM [falling, partial curve, poor fit]"
O=C(Nc1ccc(N2CCN(C(=O)c3ccc(Cl)cc3)CC2)cc1)c1ccc(Br)o1,"31.6 µM [rising, single point]",
CCN(CC)CCNC(=O)c1cc(Cl)c(N)cc1OC,"7.08 nM [rising, full curve, poor fit] and 35.5 µM [falling, single point]",
O=S(=O)(c1cccs1)N1CCN(C/C=C/c2ccccc2)CC1,"11.2 µM [rising, partial curve, poor fit]",
CCOc1ccc(C2C(=O)N(C3CCCCCC3)CC(=O)N2CCc2ccccc2)cc1OC (stereo not drawn),"0.01 µM [falling, full curve]","0.0562 µM [falling, full curve]"
Cc1ccccc1CNc1nnnn1C,"1.26 µM [rising, full curve, poor fit]",
NCCCNCCCCNCCCN,,"0.0794 µM [rising, full curve, poor fit]"
NS(=O)(=O)c1ccc(N/N=C2/CCCCC2C2CCCCC2)c([N+](=O)[O-])c1 (stereo not drawn),"25.1 µM [falling, partial curve]","31.6 µM [falling, partial curve]"
COc1cc(SC#N)ccc1N=Cc1c(C)[nH]n(-c2ccc(C)cc2)c1=O,"17.8 µM [falling, single point]","35.5 µM [falling, single point]"
Cc1ccc(-n2c(SCC(=O)NC3CCS(=O)(=O)C3)nc3ccccc3c2=O)cc1 (stereo not drawn),,"14.1 µM [rising, partial curve]"
Cc1cc(O)cc2c(=O)c3ccccc3sc12,"0.0891 µM [falling, full curve, poor fit]","0.316 µM [falling, partial curve, poor fit]"
CCc1ccc(/C=C2\Oc3cc(OC(=O)N4CCOCC4)ccc3C2=O)cc1,"15.8 µM [rising, single point]",
CCOc1ccc(NC(=O)C(=O)NCCc2csc3nc(-c4ccccc4F)nn23)cc1,"0.447 µM [falling, partial curve, poor fit]","0.0708 µM [falling, full curve, poor fit]"
Cc1cc2nc(Sc3c([N+](=O)[O-])nc(C)n3Cc3ccccc3)[nH]c2cc1C,"35.5 µM [falling, single point]","22.4 µM [falling, partial curve]"
CCOc1ccc(/C=N/OCC(=O)NC(c2ccccc2)c2ccccc2)cc1,"14.1 µM [rising, partial curve]","11.2 µM [rising, partial curve, poor fit]"
CCC1CCCCN1C(=O)CSc1nc2c([nH]c3ccccc32)c(=O)n1-c1cccc(OC)c1 (stereo not drawn),"35.5 µM [rising, single point]",
